Results deposited as PubChem BioAssay AID1508588 (Peter MacCallum Cancer Centre, 2020)
In all, the deposit lists about 18,000 reagents; below is an unselected part. 790 of all reagents (4.4%) were called active. 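Calls rest on a combination of fold-change classes in drug and vehicle arms, not all shown here.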 A number with no mark means an inactive call.

Assay: 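Knock-downs boosting vemurafenib effects on melanoma cell growth or lactate release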 (primary screen)
Cell system: human WM266.4 melanoma cells (BRAF V600 mutant)
Reagents: siRNA pool against human genes, 40 nM
Timing: 96 h from transfection to read-out
Challenge: vemurafenib 300 nM (about IC25), added 48 h after transfection, for 48 h; comparison arm got DMSO vehicle only
Measured: 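Ratios to non-targeting siRNA for cell gain, counted as DAPI nuclei after minus before drug and averaged over two replicates, and for absorbance-read medium lactate per cell; both binned into fold-change classes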
Direction: cell gain with vemurafenib: higher = more cell gain than with non-targeting siRNA; lactate per cell with vemurafenib: higher = more lactate made per cell
Hit rule: 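Enhancement is called by pairing each knock-down's vehicle-arm and drug-arm fold-change classes for viability or glycolysis; which class combinations qualify is not given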
Calls: active = enhances vemurafenib effect; inactive = no enhancement seen

| cell gain with vemurafenib | lactate per cell with vemurafenib | gene symbol |
| --- | --- | --- |
| 0.44 (active) | 0.59 | DOCK1 (GeneID 1793) |
| 0.4 | 1.75 | YWHAZ (GeneID 7534) |
| 0.21 | 1.03 | PRR15L (GeneID 79170) |
| 0.53 | 0.71 | PCDHA9 (GeneID 9752) |
| 1.1 | 1.06 | KRT222 (GeneID 125113) |
| 0.92 | 0.78 | PPIF (GeneID 10105) |
| 1.06 | 0.65 | YY2 (GeneID 404281) |
| 0.77 (active) | 0.38 | ARHGAP24 (GeneID 83478) |
| 0.27 | 0.48 | RYBP (GeneID 23429) |
| 0.01 | 4.1 | AANAT (GeneID 15) |
| 0.97 | 0.94 | KRT86 (GeneID 3892) |
| 0.59 | 0.91 | SERPINB11 (GeneID 89778) |
| 0.39 | 1.16 | NOP58 (GeneID 51602) |
| 0.41 | 1.51 | APOBEC3C (GeneID 27350) |
| 0.62 | 1.04 | GTF2H3 (GeneID 2967) |
| 0.48 | 0.88 | RBP2 (GeneID 5948) |
| 0.43 | 0.44 | ZNF549 (GeneID 256051) |
| 0.46 (active) | 0.54 | CPNE4 (GeneID 131034) |
| 0.35 | 1.58 | ACOT8 (GeneID 10005) |
| 0.52 | 1.12 | MAP3K4 (GeneID 4216) |
| 0.77 | 0.74 | BMERB1 (GeneID 89927) |
| 0.77 | 0.53 | HMGA2 (GeneID 8091) |
| 0.62 | 0.94 | PPP1R35 (GeneID 221908) |
| 0.17 | 1.98 | ECT2 (GeneID 1894) |
| 0.11 | 1.46 | SHLD2 (GeneID 54537) |
| 0.91 | 0.7 | TTC38 (GeneID 55020) |
| 0.66 | 0.9 | KCNK3 (GeneID 3777) |
| 0.65 | 1.09 | ZMAT3 (GeneID 64393) |
| 0.28 | 2.75 | LHFPL7 (GeneID 255349) |
| 1.08 | 0.84 | RNF5 (GeneID 6048) |
| 0.56 | 1.05 | EIF4G3 (GeneID 8672) |
| 0.55 | 1.08 | OR52H1 (GeneID 390067) |
| 0.93 | 0.66 | CIAO1 (GeneID 9391) |
| 0.88 | 0.62 | SYN1 (GeneID 6853) |
| 1.32 (active) | 0.49 | TPTE2 (GeneID 93492) |
| 0.78 | 0.52 | ARSH (GeneID 347527) |
| 0.64 | 1.6 | C1QTNF5 (GeneID 114902) |
| 0.79 | 0.6 | MTARC2 (GeneID 54996) |
| 0.11 | 0.24 | C19orf33 (GeneID 64073) |
| 0.8 | 0.96 | EIF1 (GeneID 10209) |

Continued (2 carried over from the part before).
| cell gain with vemurafenib | lactate per cell with vemurafenib | gene symbol |
| --- | --- | --- |
| 0.11 | 0.24 | C19orf33 (GeneID 64073) |
| 0.8 | 0.96 | EIF1 (GeneID 10209) |
| 0.2 | 3.17 | ARAP1 (GeneID 116985) |
| 1.08 | 0.99 | TMEM102 (GeneID 284114) |
| 0.96 | 0.86 | ABITRAM (GeneID 54942) |
| 0.66 | 0.67 | ATP5MF (GeneID 9551) |
| 0.04 | 1.77 | NUMA1 (GeneID 4926) |
| 0.51 | 0.97 | RAB8A (GeneID 4218) |
| 1.39 | 0.58 | CCDC102A (GeneID 92922) |
| 0.59 | 0.66 | LPAR4 (GeneID 2846) |
| 1 | 1.44 | ADNP (GeneID 23394) |
| 0.8 | 0.94 | CALML4 (GeneID 91860) |
| 0.62 | 1.73 | NLRP3 (GeneID 114548) |
| 0.99 | 0.66 | GJD2 (GeneID 57369) |
| 0.57 | 0.68 | VCPIP1 (GeneID 80124) |
| 0.92 | 0.74 | GP6 (GeneID 51206) |
| 0.71 | 1.34 | CD8A (GeneID 925) |
| 0.94 | 1.16 | RPH3AL (GeneID 9501) |
| 0.82 | 0.69 | TCEAL1 (GeneID 9338) |
| 0.53 | 0.82 | ERCC2 (GeneID 2068) |
| 0.52 | 0.73 | DNAI4 (GeneID 79819) |
| 0.9 | 0.9 | SGPP1 (GeneID 81537) |
| 0.38 | 0.48 | GPBP1 (GeneID 65056) |
| 0.28 | 0.58 | LINC02915 (GeneID 400360) |
| 0.82 | 0.84 | ZNF254 (GeneID 9534) |
| 0.51 | 1.84 | TGIF2LX (GeneID 90316) |
| 0.81 | 1.31 | OCLM (retired record) (GeneID 10896) |
| 0.31 | 0.4 | PTPRS (GeneID 5802) |
| 0.39 | 0.32 | DUSP26 (GeneID 78986) |
| 0.8 | 0.92 | OR2T3 (GeneID 343173) |
| 0.44 | 1.29 | PDCL3 (GeneID 79031) |
| 0.64 | 1.19 | SSX6P (GeneID 280657) |
| 0.79 | 0.98 | PHLDA3 (GeneID 23612) |
| 0.56 | 0.4 | KAT14 (GeneID 57325) |
| 0.62 | 0.79 | SLC10A2 (GeneID 6555) |
| 0.41 | 0.84 | NDC1 (GeneID 55706) |
| 1.31 | 0.6 | FBXL9P (GeneID 26231) |
| 0.39 | 1.05 | CAMTA2 (GeneID 23125) |
| 0.17 | 2.67 | NDRG4 (GeneID 65009) |
| 0.68 | 0.85 | SNX12 (GeneID 29934) |
| 0.6 | 1.18 | MAFG (GeneID 4097) |
| 0.51 | 1.21 | C14orf93 (GeneID 60686) |
| 1.2 | 0.64 | KRR1 (GeneID 11103) |
| 0.75 | 0.86 | APEX1 (GeneID 328) |
| 0.33 | 1.4 | FGR (GeneID 2268) |
| 0.74 | 0.52 | RAD9B (GeneID 144715) |
| 0.52 | 1 | MON1B (GeneID 22879) |
| 0.59 | 1.52 | FBXO11 (GeneID 80204) |
| 0.38 | 1.75 | MUC7 (GeneID 4589) |
| 1.1 | 1.02 | TRAFD1 (GeneID 10906) |
| 0.53 | 1.06 | FERMT1 (GeneID 55612) |
| 1 | 1.04 | KLHL17 (GeneID 339451) |
| 0.55 | 0.85 | IDO1 (GeneID 3620) |
| 1.03 | 0.64 | SLCO1C1 (GeneID 53919) |
| 0.4 | 0.94 | ELMO3 (GeneID 79767) |
| 0.87 | 0.47 | PAX7 (GeneID 5081) |
| 0.9 | 0.61 | THAP1 (GeneID 55145) |
| 0.01 | 1.31 | JPH2 (GeneID 57158) |
| 0.21 | 0.84 | ADAP2 (GeneID 55803) |
| 0.33 | 1.5 | NCAPD3 (GeneID 23310) |
| 0.46 | 0.22 | CAAP1 (GeneID 79886) |
| 0.62 | 0.6 | SLC16A13 (GeneID 201232) |
| 0.02 | 0.8 | RBM4B (GeneID 83759) |
| 1 | 0.91 | DDX50 (GeneID 79009) |
| -0.15 | 1.09 | PSCA (GeneID 8000) |
| 0.57 | 0.99 | PCDHGB7 (GeneID 56099) |
| 0.24 | 1.54 | DCUN1D3 (GeneID 123879) |
| -0.02 | 2.02 | TINF2 (GeneID 26277) |
| 0.55 | 0.9 | AKR1C6P (GeneID 389932) |
